This is an account of results in publication doi:10.1101/2025.03.27.645713.

For at least one entry, the source does not settle the construct or the ends of the probe.

In the series the test system is aCcr1. The experiment in a line: EMSA. As to conditions: 5 mM MgCl2, 0, 0.5 and 1 (unit lost in print, probably uM) aCcr1.

Turning to “AGATAATACTCCGTTTTTTCTCTAACAATAGATTAACGTTAAAGAAGCCTGCTAACGATTATATTTTATTCTGCTAAGTATTACCGTAGAGTGATCTGTA (double strand) [Pcran1 (cran1 promoter probe, 100 bp)]”, the binding result is “binds”.
